No constants are given. Whether binding was seen depends on the method and setting. A result given as binding can be weak or reduced; the word gives no strength.
Assays:
[1] = molecular target: LptB of Klebsiella pneumoniae (Klebsiella pneumoniae); experiment: crystal structure; K. pneumoniae LptB2FG complex in detergent (Cymal-5, DDM, DMNG), nucleotide-free; sitting drop, room temperature, 0.1 mM MES pH 6.5, 0.1 M sodium chloride, 0.1 M lithium sulfate, 24% PEG 300; Pt-SAD, 3.7 A; both purified
[2] = molecular target: LptG of Klebsiella pneumoniae (Klebsiella pneumoniae); experiment: as above

By UniProt entry, the sequences of proteins in these tests, tags left out. Where a name states a change or a piece, a line headed by the entry shows the natural chain unless it says otherwise.
UniProt A0A1Y0Q3P9: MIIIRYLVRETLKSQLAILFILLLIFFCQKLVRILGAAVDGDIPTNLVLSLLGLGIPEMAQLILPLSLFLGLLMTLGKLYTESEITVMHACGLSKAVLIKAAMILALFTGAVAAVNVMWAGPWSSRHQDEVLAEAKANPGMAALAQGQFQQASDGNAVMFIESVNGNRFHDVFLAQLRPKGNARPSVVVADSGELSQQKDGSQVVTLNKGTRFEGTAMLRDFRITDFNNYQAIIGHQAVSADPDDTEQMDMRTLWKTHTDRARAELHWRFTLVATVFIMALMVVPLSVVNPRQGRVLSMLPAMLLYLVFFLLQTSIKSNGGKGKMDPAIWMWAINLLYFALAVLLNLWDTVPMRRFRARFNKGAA
UniProt A0A1Y0Q3C0: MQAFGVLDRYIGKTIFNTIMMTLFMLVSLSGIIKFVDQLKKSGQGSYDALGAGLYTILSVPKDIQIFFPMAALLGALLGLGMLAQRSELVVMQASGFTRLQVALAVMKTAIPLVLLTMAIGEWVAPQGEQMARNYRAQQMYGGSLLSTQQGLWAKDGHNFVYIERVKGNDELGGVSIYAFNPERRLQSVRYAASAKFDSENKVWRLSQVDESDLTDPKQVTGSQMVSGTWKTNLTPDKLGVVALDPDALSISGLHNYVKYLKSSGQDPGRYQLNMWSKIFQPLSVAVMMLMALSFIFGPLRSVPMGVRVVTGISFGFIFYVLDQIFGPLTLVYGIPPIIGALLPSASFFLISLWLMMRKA

| binding [1] | binding [2] | Substance |
| --- | --- | --- |
| binds | binds | LptF of Klebsiella pneumoniae (from UniProt A0A1Y0Q3P9) |
| binds |  | LptG of Klebsiella pneumoniae (from UniProt A0A1Y0Q3C0) |

Source: publication PMC5548808, “Structural and functional insights into the lipopolysaccharide ABC transporter LptB2FG” (Nature Communications, 2017)
